PubChem BioAssay AID504793 | Drosophila RNAi Screening Center, 2011
The screen tested about 23,000 reagents; below is an unselected part of those that have a named target and a result. Of all reagents, 62 (0.27%) got an active call. 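Calls come from follow-up tests whose scores are not deposited, so confirmed genes may have low counts here; counts are not normalised per plate.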 Raw values vary from plate to plate and are shown uncorrected. A plus sign joins genes that one reagent is predicted to hit.

Screen: 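Knock-downs allowing continued mitosis even though DNA is damaged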 (primary screen)
System: Drosophila S2R+ cells
Reagent: long dsRNA against Drosophila genes, about 0.25 µg dsRNA per well
Timing: 4 days of dsRNA, then 4 hours of drug before read-out
Challenge: doxorubicin 0.5 µM for 4 hours to cause double-strand breaks, in cells also given a low, harmless dose of dsRNA against nbs to sensitise the assay
Detection: 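Per-well count of mitotic cells stained for phospho-histone H3 after doxorubicin exposure, used as mitotic index; counts are raw and not normalised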
Reading the numbers: mitotic cells: higher = more cells in mitosis, weaker G2 arrest
Active means: 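Genes are called active only when high mitotic counts were reproduced with independent dsRNAs and mitosis was checked for delay without damage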
Meaning of the calls: active = confirmed in follow-up tests; inactive = not confirmed

target	DRSC id	mitotic cells, replicate 1	outcome
snoRNA:660 + Act57B	DRSC23472	5	inactive
Gp150	DRSC04618	7	inactive
Gp150	DRSC29033	6	inactive
CG4313	DRSC18514	2	inactive
CG4313	DRSC24627	3	inactive
ppk16	DRSC02736	2	inactive
Alg1	DRSC15297	7	inactive
Alg1	DRSC29409	4	inactive
Agpat2	DRSC03532	7	inactive
Agpat2	DRSC27901	6	inactive
CG17010	DRSC02559	3	inactive
CG17010	DRSC29558	8	inactive
RpL18	DRSC11016	17	inactive
RpL18	DRSC22323	17	inactive
CG15478	DRSC18057	12	inactive
CG15478	DRSC25277	6	inactive
CG6951	DRSC10755	5	inactive
jar	DRSC16974	4	inactive
PH4alphaMP	DRSC17031	6	inactive
Ets97D	DRSC16665	7	inactive
Ets97D	DRSC27682	5	inactive
CG14270	DRSC17913	6	inactive
MFS12	DRSC07268	7	inactive
CG2930	DRSC17730	7	inactive
CG2930	DRSC26303	4	inactive
CG31156	DRSC15753	7	inactive
CG31156	DRSC15755	12	inactive
Oxp	DRSC06712	6	inactive
CG34353	DRSC14493	11	inactive
CG34353	DRSC14517	11	inactive
CG34353	DRSC14563	13	inactive
CG34353	DRSC15837	9	inactive
CG34353	DRSC22429	13	inactive
CG34353	DRSC27095	4	inactive
CG34353	DRSC30113	6	inactive
Pbp45	DRSC16509	5	inactive
twit	DRSC03210	5	inactive
twit	DRSC30028	13	inactive
CG6592	DRSC10669	2	inactive
Cbp53E	DRSC07356	6	inactive
Cbp53E	DRSC24679	5	inactive
Lcp65Af	DRSC11213	5	inactive
Lcp65Af	DRSC25142	5	inactive
ncd	DRSC17012	2	inactive
Rca1	DRSC03407	3	inactive

Targets above whose target name starts with E or e (2):
target	DRSC id	mitotic cells, replicate 1	outcome
Ets97D	DRSC16665	7	inactive
Ets97D	DRSC27682	5	inactive
